# PubChem BioAssay AID504784 – Drosophila RNAi Screening Center | 2011
# Test: 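Search for regulators of lipid droplet storage in oleate-fed fly cells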 (primary screen)
# System: Drosophila Kc167 embryonic cells
# Knock-down reagent: long dsRNA against Drosophila genes, about 250 ng dsRNA per well
# Time to read-out: 4 days
# Treatment: cells fed 400 µM oleic acid bound to BSA
# Measured: 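Microscope images give a droplet-to-nucleus area ratio, taken as log and converted to a screen-wide B-score; higher values mean greater lipid storage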
# Scale: droplet/nuclear area B-score: higher = more stored lipid (overstorage)
# The deposit covers about 17,000 reagents; this is a random part of those that have a named target and a result. 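Each column is one replicate's B-score; the combined score over replicates was not deposited, so single values may mislead.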
The first 2 entries, to show the layout:
predicted target,amplicon,"droplet/nuclear area B-score, replicate 1","droplet/nuclear area B-score, replicate 2","droplet/nuclear area B-score, replicate 3"
Map60 (Microtubule-associated protein 60),DRSC07464,-1.55,0.335,
CG7990,DRSC19296,-0.274,-0.593,

Main list, from the first entry:
predicted target,amplicon,"droplet/nuclear area B-score, replicate 1","droplet/nuclear area B-score, replicate 2","droplet/nuclear area B-score, replicate 3"
Map60 (Microtubule-associated protein 60),DRSC07464,-1.55,0.335,
CG7990,DRSC19296,-0.274,-0.593,
CG7990,DRSC20069,1.78,1.73,
CG7990,DRSC23195,-0.0209,0.0616,
s-cup (stanley-cup),DRSC06277,0.0409,-0.144,
s-cup (stanley-cup),DRSC06278,-1.53,-0.674,
Cpr50Cb (Cuticular protein 50Cb),DRSC06975,-1.46,0.09,
CG17841,DRSC17737,2.84,-1.55,0.664
CG32713,DRSC22766,1.1,1.39,
RabX1,DRSC04678,1.73,-2.03,
CG14543,DRSC14887,2.49,4.55,
stwl (stonewall),DRSC11400,4.27,-0.384,1.74
CG18809,DRSC19818,-0.99,-2.3,
CG30091,DRSC21809,-0.00366,-1.06,
CG13284,DRSC02256,-0.615,0.264,
CG14644,DRSC12230,0.605,-0.713,
CG8461,DRSC16424,-0.078,1.59,
CG9377,DRSC03217,0.926,,
CG9928,DRSC03274,-0.0786,-1.08,
Tmep (Transmembrane endosomal protein),DRSC08215,0.221,-0.473,
mub (mushroom-body expressed),DRSC11896,0.0465,-1.46,0.696
t-Grip91 (testis-specific gamma-tubulin ring protein 91),DRSC01506,-0.391,-0.122,
Naa30B (N(alpha)-acetyltransferase 30 B),DRSC08245,-0.434,0.153,
CG10064,DRSC09689,-0.00272,0.433,
Cals (Calsyntenin),DRSC17196,-1.24,-0.00339,
Cals (Calsyntenin),DRSC21661,0.679,-0.0138,
Rpn1 (Regulatory particle non-ATPase 1),DRSC11274,-2.36,1.13,-0.0215
CarT (Carcinine transporter),DRSC03196,-0.298,1.25,
robl62A,DRSC08153,-1.12,-0.212,
htk (hat-trick),DRSC20029,-0.831,-1.01,
htk (hat-trick),DRSC20031,0.895,0.657,
Snx21 (Sorting nexin 21),DRSC00564,0.0318,-1.4,
Etf-QO (Electron transfer flavoprotein-ubiquinone oxidoreductase),DRSC06111,1.86,-0.0798,
Art8 (Arginine methyltransferase 8),DRSC02530,-0.177,-0.129,
